No constants are given. Whether binding was seen depends on the method and setting. Binding seen in cells or lysates may run through a third protein. Some entries that bind do so weakly or less than the wild type.
Target: ApoB100 (apolipoprotein B100) (human (endogenous in HepG2)) (UniProt P04114)
Experiment: co-IP; HepG2 cell lysate incubated with anti-GLT8D2 and anti-apoB100 antibodies overnight at 4 °C with Protein-G/A beads; Western blot; rabbit irrelevant IgG as control

Sequences of proteins named here, by UniProt entry; tags and fusion partners are left off. Residues count along the entry.
UniProt P04114, residues 28-4563: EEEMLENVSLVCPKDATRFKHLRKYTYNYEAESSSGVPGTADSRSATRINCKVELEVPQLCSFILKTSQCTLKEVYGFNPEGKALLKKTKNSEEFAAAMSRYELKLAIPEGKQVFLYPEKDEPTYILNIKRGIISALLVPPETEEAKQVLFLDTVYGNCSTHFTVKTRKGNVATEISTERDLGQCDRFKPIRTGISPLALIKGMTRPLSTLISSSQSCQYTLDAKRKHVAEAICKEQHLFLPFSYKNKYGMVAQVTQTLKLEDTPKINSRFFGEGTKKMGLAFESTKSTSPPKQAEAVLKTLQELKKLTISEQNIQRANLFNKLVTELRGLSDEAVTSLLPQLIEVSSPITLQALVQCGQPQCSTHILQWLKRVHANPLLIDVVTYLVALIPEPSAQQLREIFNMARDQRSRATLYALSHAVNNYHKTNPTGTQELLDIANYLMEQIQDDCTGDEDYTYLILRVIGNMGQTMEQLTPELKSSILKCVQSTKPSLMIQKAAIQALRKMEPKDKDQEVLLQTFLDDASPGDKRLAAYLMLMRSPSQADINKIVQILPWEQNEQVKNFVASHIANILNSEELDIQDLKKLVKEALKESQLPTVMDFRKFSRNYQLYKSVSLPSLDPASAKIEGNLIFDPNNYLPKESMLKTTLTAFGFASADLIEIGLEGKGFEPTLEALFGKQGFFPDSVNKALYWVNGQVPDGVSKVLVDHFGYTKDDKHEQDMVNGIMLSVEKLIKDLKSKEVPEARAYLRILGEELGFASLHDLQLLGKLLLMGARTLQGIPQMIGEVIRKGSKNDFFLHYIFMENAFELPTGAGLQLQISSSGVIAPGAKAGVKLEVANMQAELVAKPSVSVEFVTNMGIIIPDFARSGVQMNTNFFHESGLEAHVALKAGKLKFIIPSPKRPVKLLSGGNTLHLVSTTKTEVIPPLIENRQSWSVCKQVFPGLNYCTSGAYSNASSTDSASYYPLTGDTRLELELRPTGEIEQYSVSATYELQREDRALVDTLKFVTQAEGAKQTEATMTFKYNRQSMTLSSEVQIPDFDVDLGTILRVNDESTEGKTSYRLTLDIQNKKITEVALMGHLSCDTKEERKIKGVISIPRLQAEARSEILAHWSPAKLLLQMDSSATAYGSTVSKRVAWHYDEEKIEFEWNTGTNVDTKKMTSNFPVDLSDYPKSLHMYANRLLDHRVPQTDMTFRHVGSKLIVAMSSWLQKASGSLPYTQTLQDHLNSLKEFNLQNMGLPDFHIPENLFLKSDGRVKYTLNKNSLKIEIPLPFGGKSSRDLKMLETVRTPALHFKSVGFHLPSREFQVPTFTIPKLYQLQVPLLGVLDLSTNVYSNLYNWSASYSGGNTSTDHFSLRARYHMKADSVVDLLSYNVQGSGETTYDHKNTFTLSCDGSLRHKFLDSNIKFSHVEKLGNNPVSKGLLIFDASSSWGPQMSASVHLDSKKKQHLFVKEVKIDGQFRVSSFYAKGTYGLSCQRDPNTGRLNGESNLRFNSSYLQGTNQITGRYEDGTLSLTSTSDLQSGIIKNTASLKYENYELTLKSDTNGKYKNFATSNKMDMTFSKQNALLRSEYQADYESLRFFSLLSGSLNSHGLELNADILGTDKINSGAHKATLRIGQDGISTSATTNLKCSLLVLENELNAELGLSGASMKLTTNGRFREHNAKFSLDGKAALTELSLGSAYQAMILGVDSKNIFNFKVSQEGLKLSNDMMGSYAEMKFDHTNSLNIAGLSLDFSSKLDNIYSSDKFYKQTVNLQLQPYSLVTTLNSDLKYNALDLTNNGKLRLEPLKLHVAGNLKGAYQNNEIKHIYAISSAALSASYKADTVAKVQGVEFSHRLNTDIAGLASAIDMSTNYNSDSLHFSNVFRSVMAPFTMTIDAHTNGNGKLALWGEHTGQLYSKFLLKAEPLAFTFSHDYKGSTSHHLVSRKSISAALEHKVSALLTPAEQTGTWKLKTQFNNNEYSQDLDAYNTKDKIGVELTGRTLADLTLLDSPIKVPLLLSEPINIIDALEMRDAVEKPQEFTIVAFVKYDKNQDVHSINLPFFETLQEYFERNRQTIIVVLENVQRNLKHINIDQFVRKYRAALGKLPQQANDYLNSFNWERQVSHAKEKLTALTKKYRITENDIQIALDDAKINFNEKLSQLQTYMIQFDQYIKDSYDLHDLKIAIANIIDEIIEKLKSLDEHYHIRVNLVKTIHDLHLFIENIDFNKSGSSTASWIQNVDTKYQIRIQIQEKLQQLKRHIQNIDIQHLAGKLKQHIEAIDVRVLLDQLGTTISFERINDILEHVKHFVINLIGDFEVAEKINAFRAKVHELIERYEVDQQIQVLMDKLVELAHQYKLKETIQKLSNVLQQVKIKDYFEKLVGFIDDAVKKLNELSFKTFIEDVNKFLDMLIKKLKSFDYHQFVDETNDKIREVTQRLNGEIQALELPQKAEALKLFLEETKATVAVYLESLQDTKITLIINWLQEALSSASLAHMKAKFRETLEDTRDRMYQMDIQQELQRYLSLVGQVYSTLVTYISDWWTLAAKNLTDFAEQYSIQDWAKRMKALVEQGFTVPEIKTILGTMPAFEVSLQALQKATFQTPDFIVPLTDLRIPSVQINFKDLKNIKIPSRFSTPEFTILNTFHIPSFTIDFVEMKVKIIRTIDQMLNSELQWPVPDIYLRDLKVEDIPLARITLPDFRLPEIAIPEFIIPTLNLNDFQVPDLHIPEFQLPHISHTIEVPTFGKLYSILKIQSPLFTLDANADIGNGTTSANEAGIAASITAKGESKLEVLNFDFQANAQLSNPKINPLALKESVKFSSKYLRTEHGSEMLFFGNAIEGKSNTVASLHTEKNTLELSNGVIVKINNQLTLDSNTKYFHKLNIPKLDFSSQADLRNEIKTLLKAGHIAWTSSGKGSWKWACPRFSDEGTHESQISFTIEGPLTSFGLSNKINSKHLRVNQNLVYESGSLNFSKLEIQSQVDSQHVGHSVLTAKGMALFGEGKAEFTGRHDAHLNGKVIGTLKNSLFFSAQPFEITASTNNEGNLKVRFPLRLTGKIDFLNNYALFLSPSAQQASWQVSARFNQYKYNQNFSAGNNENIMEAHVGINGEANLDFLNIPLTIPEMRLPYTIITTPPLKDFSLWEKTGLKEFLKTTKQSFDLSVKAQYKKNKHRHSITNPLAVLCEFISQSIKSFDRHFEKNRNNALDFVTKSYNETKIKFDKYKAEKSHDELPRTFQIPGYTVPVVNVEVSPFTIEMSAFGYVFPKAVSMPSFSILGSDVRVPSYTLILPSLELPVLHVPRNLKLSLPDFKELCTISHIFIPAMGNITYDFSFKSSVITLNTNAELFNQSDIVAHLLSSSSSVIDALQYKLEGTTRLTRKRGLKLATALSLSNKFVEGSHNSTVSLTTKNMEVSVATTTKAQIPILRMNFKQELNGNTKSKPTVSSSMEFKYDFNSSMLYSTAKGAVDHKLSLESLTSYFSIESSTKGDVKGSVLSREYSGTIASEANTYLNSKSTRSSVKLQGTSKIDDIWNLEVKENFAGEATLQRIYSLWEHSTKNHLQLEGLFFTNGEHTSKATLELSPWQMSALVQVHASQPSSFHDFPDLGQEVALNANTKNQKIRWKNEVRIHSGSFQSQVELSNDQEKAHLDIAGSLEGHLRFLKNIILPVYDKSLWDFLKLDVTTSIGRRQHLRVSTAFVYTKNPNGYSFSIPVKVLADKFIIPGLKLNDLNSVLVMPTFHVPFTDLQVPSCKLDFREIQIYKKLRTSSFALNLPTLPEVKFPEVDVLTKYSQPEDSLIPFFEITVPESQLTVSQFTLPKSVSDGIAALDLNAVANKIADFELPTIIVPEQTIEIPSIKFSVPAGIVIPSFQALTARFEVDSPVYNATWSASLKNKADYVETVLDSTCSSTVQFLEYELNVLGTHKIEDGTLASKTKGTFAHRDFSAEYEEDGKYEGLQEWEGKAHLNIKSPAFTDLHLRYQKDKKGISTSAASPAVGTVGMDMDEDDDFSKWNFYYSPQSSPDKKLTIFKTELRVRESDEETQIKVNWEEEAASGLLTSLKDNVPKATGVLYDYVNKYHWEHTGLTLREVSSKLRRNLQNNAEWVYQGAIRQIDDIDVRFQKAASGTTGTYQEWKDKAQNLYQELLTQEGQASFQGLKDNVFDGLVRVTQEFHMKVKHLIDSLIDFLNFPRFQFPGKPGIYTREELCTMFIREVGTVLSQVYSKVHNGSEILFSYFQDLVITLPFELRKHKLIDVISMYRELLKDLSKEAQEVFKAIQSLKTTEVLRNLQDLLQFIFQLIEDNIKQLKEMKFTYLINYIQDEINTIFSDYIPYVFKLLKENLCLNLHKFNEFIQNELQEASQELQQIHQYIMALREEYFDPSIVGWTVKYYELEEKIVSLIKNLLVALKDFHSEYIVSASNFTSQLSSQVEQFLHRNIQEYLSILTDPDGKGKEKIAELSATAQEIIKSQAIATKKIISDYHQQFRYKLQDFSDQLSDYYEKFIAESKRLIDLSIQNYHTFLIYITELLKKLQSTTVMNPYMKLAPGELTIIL

binding: binds
B1: GLT8D2 (glycosyltransferase 8 domain containing 2) (enzyme, UniProt Q9H1C3 1-349)
chain: MALLRKINQVLLFLLIVTLCVILYKKVHKGTVPKNDADDESETPEELEEEIPVVICAAAGRMGATMAAINSIYSNTDANILFYVVGLRNTLTRIRKWIEHSKLREINFKIVEFNPMVLKGKIRPDSSRPELLQPLNFVRFYLPLLIHQHEKVIYLDDDVIVQGDIQELYDTTLALGHAAAFSDDCDLPSAQDINRLVGLQNTYMGYLDYRKKAIKDLGISPSTCSFNPGVIVANMTEWKHQRITKQLEKWMQKNVEENLYSSSLGGGVATSPMLIVFHGKYSTINPLWHIRHLGWNPDARYSEHFLQEAKLLHWNGRHKPWDFPSVHNDLWESWFVPDPAGIFKLNHHS
